# Assay results from PMC8564633, “SMAC/Diablo controls proliferation of cancer cells by regulating phosphatidylethanolamine synthesis” (Molecular Oncology, 2021).
# These are yes or no findings as the source states them, for the method shown. Binding seen in cells or lysates may run through a third protein. A result given as binding can be weak or reduced; the word gives no strength.
# B1: phosphatidylserine decarboxylase (PSD), endogenous (enzyme, UniProt Q9UG56 53-409)
# chain: IHTAPARTMFLLRPLPILLVTGGGYAGYRQYEKYRERELEKLGLEIPPKLAGHWEVALYKSVPTRLLSRAWGRLNQVELPHWLRRPVYSLYIWTFGVNMKEAAVEDLHHYRNLSEFFRRKLKPQARPVCGLHSVISPSDGRILNFGQVKNCEVEQVKGVTYSLESFLGPRMCTEDLPFPPAASCDSFKNQLVTREGNELYHCVIYLAPGDYHCFHSPTDWTVSHRRHFPGSLMSVNPGMARWIKELFCHNERVVLTGDWKHGFFSLTAVGATNVGSIRIYFDRDLHTNSPRHSKGSYNDFSFVTHTNREGVPMRKGEHLGEFNLGSTIVLIFEAPKDFNFQLKTGQKIRFGEALGSL
# Target: SMAC/Diablo, endogenous (human (endogenous in A549))
# Assay: proximity ligation; in‐situ PLA on fixed, permeabilized A549 cells (A549‐SMAC‐KO cells as control); anti‐SMAC (rabbit) and anti‐PSD (mouse)
binder,measurement,value
B1,binding,binds
